Among the data in paper PMC4991666 are binding values, retold here.

The target in test [1] is T1, Kin1:GFP (Kindlin 1 fused to GFP) (UniProt Q9BQL6).
T1 sequence: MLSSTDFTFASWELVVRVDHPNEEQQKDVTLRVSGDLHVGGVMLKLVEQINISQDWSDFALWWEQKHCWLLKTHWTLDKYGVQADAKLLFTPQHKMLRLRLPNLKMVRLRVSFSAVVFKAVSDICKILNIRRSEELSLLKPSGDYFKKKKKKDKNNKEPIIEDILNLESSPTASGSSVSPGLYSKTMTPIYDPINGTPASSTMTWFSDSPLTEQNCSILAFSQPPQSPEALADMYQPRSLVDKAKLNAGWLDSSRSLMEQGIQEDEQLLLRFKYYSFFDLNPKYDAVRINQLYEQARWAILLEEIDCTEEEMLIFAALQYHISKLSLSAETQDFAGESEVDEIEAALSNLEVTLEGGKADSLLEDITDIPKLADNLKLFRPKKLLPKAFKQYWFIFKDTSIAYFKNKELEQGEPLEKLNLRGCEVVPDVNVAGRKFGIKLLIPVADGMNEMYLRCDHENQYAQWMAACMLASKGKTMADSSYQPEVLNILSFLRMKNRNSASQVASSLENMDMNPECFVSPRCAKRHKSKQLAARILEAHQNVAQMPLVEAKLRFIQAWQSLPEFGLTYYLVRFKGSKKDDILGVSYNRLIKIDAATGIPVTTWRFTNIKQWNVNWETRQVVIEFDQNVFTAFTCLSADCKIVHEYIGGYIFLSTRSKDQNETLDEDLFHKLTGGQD
As to the kind of experiment: pull-down; GFP pull down with GFP-Trap agarose beads from 0.25-1 mg lysate (NP40 buffer: 25 mM Tris, 150 mM NaCl, 0.5% NP40, pH 7.6) of cells expressing Kin1:GFP or GFP, room temperature 30-45 min, blots of the bound proteins; also after treatment of the cells with DMSO, tubacin, BI2536 or nocodazole.

Test [2] deals with alpha-tubulin, endogenous (human (endogenous in MDA-MB-231)). As to the kind of experiment: co-IP; lysate (NP40 buffer) incubated with agarose beads pre-conjugated with anti-HDAC6, anti-al-tub or anti-ac-tub antibody, room temperature 30-45 min; blot for endogenous Kin1.

These are yes or no findings as the source states them, for the method shown. In cells and extracts the contact can be indirect. Binding calls can cover weak binding; strength is not graded here. For part of these data: Tags and fused reporters may be left off the sequences shown.

As to “alpha-tubulin, endogenous (human (endogenous in MDA-MB-231))”, the binding result in test [1] was “binds”.

With “p38, endogenous (human (endogenous in MDA-MB-231)) (enzyme)”, the binding entry in test [1] is on record as “no binding”.

B1: Kindlin 1 (Kin1), endogenous (protein, UniProt Q9BQL6 1-677)
chain: T1 sequence
As to B1, the binding result in test [2] is recorded as “binds”.
